This data set in a line: Metabolic stability in NADPH-fortified human liver microsomes assessed as CYP450-mediated stability by measuring half-life incubated for 120 mins by LC/MS analysis. In general terms: Liver microsomes are vesicles of endoplasmic reticulum, rich in cytochrome P450 enzymes.

What is called half-life is the time in which the quantity being followed falls by half. `Cc1ncc2n1-c1ccc(Cl)cc1C(c1ccccc1F)=NC2` [MIDAZOLAM]: the half-life at 2 h is 6.6 min.

For the origin of these results see ChEMBL document CHEMBL5528009, “Benzothiozinone derivatives with anti-tubercular Activity-Further side chain investigation” (Eur J Med Chem, 2024).
